B1: 2D HA-tagged 4E-BP2 (N99D/N102D) (protein, UniProt Q13542 1-120)
chain: MSSSAGSGHQPSQSRAIPTRTVAISDAAQLPHDYCTTPGGTLFSTTPGGTRIIYDRKFLLDRRNSPMAQTPPCHLPNIPGVTSPGTLIEDSKVEVNNLDNLDNHDRKHAVGDDAQFEMDI
B2: WT HA-tagged 4E-BP2 (protein, UniProt Q13542 1-120)
chain: MSSSAGSGHQPSQSRAIPTRTVAISDAAQLPHDYCTTPGGTLFSTTPGGTRIIYDRKFLLDRRNSPMAQTPPCHLPNIPGVTSPGTLIEDSKVEVNNLNNLNNHDRKHAVGDDAQFEMDI

By UniProt entry, the sequences of proteins in these tests, tags left out.
UniProt Q8N122: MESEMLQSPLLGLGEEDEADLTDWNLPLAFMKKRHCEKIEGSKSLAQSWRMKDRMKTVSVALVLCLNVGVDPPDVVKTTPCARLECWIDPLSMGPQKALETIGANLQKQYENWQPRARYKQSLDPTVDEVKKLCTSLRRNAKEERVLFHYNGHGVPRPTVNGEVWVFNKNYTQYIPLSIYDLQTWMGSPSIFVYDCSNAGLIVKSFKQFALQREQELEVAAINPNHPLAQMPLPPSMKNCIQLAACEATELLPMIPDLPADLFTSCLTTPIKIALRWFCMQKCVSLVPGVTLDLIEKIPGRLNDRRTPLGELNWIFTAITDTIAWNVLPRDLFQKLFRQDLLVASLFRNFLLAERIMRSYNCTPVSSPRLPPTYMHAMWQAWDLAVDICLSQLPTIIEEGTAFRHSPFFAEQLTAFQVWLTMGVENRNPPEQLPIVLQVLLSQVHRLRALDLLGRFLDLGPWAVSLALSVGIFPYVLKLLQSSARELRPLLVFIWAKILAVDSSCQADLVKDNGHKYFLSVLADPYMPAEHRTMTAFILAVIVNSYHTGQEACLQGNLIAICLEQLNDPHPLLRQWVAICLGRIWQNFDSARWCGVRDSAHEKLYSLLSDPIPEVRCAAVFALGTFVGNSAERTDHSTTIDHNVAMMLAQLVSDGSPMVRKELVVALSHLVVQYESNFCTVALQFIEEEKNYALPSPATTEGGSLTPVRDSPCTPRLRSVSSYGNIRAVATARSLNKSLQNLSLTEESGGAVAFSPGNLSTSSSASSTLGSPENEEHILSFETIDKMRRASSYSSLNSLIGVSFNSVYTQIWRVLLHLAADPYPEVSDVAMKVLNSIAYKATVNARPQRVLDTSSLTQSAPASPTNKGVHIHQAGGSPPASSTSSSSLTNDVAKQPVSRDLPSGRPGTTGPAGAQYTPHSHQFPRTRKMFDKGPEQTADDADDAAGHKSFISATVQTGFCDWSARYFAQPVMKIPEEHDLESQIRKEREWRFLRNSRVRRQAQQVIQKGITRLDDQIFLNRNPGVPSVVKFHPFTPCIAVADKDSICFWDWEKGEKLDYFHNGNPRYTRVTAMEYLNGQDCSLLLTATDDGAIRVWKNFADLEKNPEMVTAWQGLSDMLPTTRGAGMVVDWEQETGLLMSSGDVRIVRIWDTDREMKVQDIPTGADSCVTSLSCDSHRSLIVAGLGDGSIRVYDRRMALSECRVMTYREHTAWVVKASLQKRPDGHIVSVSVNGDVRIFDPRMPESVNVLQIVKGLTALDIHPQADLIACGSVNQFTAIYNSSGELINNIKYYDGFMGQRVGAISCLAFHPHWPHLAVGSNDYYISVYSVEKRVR
UniProt Q13620: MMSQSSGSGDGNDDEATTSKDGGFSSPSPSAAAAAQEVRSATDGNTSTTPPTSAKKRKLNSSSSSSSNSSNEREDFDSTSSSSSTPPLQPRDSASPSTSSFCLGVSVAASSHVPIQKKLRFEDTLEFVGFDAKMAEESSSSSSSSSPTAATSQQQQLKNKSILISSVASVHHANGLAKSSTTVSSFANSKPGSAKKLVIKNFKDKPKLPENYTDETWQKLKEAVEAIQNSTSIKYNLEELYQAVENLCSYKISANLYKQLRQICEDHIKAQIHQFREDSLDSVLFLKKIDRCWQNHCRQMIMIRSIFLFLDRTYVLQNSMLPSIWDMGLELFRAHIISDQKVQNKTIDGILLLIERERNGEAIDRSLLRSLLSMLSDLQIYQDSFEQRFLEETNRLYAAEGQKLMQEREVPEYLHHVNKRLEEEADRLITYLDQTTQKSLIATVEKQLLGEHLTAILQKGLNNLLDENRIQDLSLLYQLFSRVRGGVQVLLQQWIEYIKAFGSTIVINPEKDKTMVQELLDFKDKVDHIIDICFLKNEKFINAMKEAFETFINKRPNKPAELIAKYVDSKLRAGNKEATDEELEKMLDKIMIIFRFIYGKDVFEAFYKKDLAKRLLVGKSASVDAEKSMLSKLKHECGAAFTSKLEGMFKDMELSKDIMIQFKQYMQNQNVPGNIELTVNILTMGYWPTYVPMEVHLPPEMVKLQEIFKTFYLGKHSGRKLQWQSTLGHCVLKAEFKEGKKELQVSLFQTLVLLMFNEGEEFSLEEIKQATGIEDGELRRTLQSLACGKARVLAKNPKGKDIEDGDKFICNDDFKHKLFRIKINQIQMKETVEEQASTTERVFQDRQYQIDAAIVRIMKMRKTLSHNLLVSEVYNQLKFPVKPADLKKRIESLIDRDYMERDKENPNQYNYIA
UniProt Q16531: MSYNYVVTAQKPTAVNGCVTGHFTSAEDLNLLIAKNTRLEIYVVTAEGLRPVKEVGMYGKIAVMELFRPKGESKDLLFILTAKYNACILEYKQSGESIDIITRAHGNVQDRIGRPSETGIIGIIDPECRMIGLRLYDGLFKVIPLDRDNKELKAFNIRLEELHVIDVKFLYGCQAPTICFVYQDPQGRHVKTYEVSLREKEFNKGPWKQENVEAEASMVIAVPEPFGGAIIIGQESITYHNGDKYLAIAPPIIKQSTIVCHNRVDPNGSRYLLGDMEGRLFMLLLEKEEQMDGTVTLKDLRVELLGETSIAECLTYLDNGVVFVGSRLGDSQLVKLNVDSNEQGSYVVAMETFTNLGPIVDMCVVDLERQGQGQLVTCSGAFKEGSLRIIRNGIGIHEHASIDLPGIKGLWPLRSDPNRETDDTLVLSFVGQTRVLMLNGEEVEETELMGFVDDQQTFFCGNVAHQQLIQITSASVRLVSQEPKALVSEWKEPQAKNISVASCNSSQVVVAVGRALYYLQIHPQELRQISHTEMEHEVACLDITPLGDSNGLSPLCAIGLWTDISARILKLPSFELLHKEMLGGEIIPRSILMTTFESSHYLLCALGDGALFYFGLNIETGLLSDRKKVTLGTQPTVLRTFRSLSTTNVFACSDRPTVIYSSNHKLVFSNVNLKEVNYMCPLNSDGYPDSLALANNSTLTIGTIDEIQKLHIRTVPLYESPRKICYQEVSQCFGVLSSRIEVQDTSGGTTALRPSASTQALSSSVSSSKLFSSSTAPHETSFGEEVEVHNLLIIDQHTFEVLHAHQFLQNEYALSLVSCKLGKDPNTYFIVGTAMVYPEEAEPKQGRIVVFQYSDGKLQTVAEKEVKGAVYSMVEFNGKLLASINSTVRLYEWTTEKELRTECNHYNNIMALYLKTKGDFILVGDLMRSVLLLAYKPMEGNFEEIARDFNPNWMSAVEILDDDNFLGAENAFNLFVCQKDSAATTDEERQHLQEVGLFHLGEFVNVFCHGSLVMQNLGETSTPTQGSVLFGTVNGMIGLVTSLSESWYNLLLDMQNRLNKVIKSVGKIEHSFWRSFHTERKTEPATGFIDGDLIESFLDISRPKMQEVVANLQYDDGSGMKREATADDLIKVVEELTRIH

Results are given in words; binding and its absence hold for the method and conditions named. Binding seen in cells or lysates may run through a third protein. Some results given as binding are weak or reduced against the parent protein; the word gives no strength. Sequences can lack the tags named with a protein.

The results in this text go back to PMC6915327.

The target in this assay is myc-tagged full-length Raptor (UniProt Q8N122). Description: co-IP; anti-myc (9E10) immunoprecipitation on protein G agarose from HEK293H lysates co-transfected with myc-Raptor and HA-4E-BP2 WT or 2D; lysis buffer 50 mM HEPES pH 7.5, 1% CHAPS, 150 mM NaCl; 4°C; immunoblot.
With “Cullin 4B (CUL4B) (from UniProt Q13620 1-913)”, the binding result is recorded as “binds”. Take “DNA damage-binding protein 1 (DDB1) (from UniProt Q16531 1-1140)”: the binding entry is listed as “binds”. Then B1, with “binds”; and B2, with “binds”.
